Variants at the background level are over-represented here. Some results are limits rather than exact numbers.

This passage reports yeast fitness results from the RNAGym collection of RNA variant scans (doi:10.1126/science.aae0568).

B1: tRNA (parent)
chain: GUUCCGUUGGCGUAAUGGUAACGCGUCUCCCUCCUAAGGAGAAGACUGCGGGUUCGAGUCCCGUACGGAACG

Variants of B1 are the subject of this data set. Briefly: yeast fitness relative to wild type (ratio to wild type); higher = fitter; tRNA-Arg(CCU), competitive growth, 37 C, YPD. The gist of the method:
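A pool of Saccharomyces cerevisiae strains, each with a tRNA-Arg(CCU) gene variant at the native genomic locus, was competed in YPD at 37°C for 24 hours across six parallel replicates. The variants had been chemically synthesised at a 3% per-site mutation rate over 69 sites, and gene amplicons before and after competition were read by 100-nucleotide paired-end sequencing. Darwinian fitness relative to wild type rested on changes in genotype frequencies. Genotypes required ≥ 100 starting reads, and estimates < 0.5 were set to 0.5.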
On to G52C G56C, for which the yeast fitness was ≤ 0.5. To C24A C31A A40U A42C C49A belongs ≤ 0.5; to G18A C30U A40G C46U, ≤ 0.5; to U2C A20C A36G U54C C66U, ≤ 0.5. The figure for C24A U59A C61U is 0.567; for C5U C11U U35G A43U C46G C62U it is ≤ 0.5; for G6C U26C A43C A57G C66U it is ≤ 0.5. The figure for C5G C34G C49U is ≤ 0.5. For A15G G23A C27G A43C, the yeast fitness is ≤ 0.5. Consider G18C A21G C30U A36G G50A, for which the yeast fitness is ≤ 0.5. For C11U C31U G38C U47C, the yeast fitness is ≤ 0.5.

Take C11G C24A: the yeast fitness was ≤ 0.5.

For the variant U2G C11G A20U C24G G51A C60G G68C, the yeast fitness was ≤ 0.5.

With C5G C29G A37U A65G, the yeast fitness is ≤ 0.5. To C4G C11G A42G C55U C61A belongs ≤ 0.5; to G6C C29A A45U C46G U47A G50A U64G, ≤ 0.5.

Take U3C A14U C55U A57U: the yeast fitness is ≤ 0.5.

Regarding A20U C27A A40C C46A, the yeast fitness was ≤ 0.5. To U8C G10A U19C C49U belongs ≤ 0.5; to G56A C60G, 0.681. With C4U A36C U59C, the yeast fitness is ≤ 0.5. To C5A G23A G58A belongs ≤ 0.5; to U19C C22A G25A U35G, ≤ 0.5. For C33A A37G C62A, the yeast fitness is ≤ 0.5.

On to C22U C34U, for which the yeast fitness was 0.665. Consider A40G A57U A65U, for which the yeast fitness is ≤ 0.5. Consider U19A A57G A69C A70G, for which the yeast fitness was ≤ 0.5. In the case of U13C U28C C55A, the yeast fitness is ≤ 0.5.

For G10A C22G, the yeast fitness was 0.637. The figure for U13C C27U C31A U35C C55G C66U A70C is ≤ 0.5; for U2A G9C A42C it is ≤ 0.5; for G10C C60G A70C it is ≤ 0.5. For C11G A36U G48A G58C U59C, the yeast fitness was ≤ 0.5.

In the case of G6C C34A, the yeast fitness turned out to be 0.611. Turning to C11G A43U A45G U47C, the yeast fitness was ≤ 0.5. The figure for C11G G38C C61U is ≤ 0.5; for C22A U53A G67C it is ≤ 0.5; for A15C C30G A57U A70C it is ≤ 0.5.

In the case of C11U A15C A40U C66G, the yeast fitness is ≤ 0.5. C4U G12A C27G C34A C49A G68U: the yeast fitness was ≤ 0.5. With U8C C29A A36C U53C, the yeast fitness was ≤ 0.5. To C24G C27U C34U C55G C62A G68A belongs ≤ 0.5. As for U8C G25A C29G C31A, the yeast fitness was ≤ 0.5. As to C4G U8C C24U A43G, the yeast fitness was found to be 0.527. The figure for G18A A43C C46A G48C is ≤ 0.5. To C5G C55A C62U belongs 0.546. For U8C G44C C49A, the yeast fitness is ≤ 0.5. To C11G A15U A36U C66U belongs ≤ 0.5; to C11U C29U C60G, ≤ 0.5; to C11G U16A G23C C30U C34U G67U, 0.537.

For C11U A14C U26C C55U, the yeast fitness was ≤ 0.5. As for U3G C5U C34G, the yeast fitness was ≤ 0.5. The figure for C24A A36U C55A C66U is ≤ 0.5; for G41C G48A it is 0.981. To U8C G10C G23C U47G G52A C61A G67C belongs ≤ 0.5. The figure for A14U G17A C22U A69C A70U is ≤ 0.5; for C22A G25A it is 0.992; for C11G A15U C24G G41C C61A it is ≤ 0.5. In the case of G25C C66U A69C, the yeast fitness is 0.685. For the variant U53C G58C, the yeast fitness came to 0.977. Take U2G U28C G50A U59G C60U: the yeast fitness was ≤ 0.5. The figure for G10A C30G C61U is ≤ 0.5; for C4G G18C C30A A70C it is ≤ 0.5; for A21G U26C A40U C49U it is ≤ 0.5. To C31G C60U G63C belongs ≤ 0.5; to C4G C27A A36G A70U, ≤ 0.5; to A43U C49G C61U, ≤ 0.5. The figure for G17A C31A G48C is ≤ 0.5; for U8C C24U A45U it is 0.608. On to G10C C27G A42C C49A U54C, for which the yeast fitness was ≤ 0.5.

For A20C C34G C66U, the yeast fitness is ≤ 0.5. The figure for C4U U13A A14U C29U A37G G51C is ≤ 0.5; for A15G C46A G48A A57U C60A it is ≤ 0.5; for C27U A40G C62G G68A it is ≤ 0.5.

As to C33G A40U G56A, the yeast fitness is ≤ 0.5. To U8G C33G U54A U59A G67A belongs ≤ 0.5; to C5A A20C A57U C60A G68C, ≤ 0.5; to U2A C5A A21C, ≤ 0.5.

For U13C U19G C22G C34U, the yeast fitness was ≤ 0.5. To G6A C34G C62U G68C belongs ≤ 0.5. For A37C C55G G63A G68C, the yeast fitness was ≤ 0.5. Consider C5G C22A A37G G48A G50C, for which the yeast fitness is ≤ 0.5. To U2G G23C G58A C61G A70U belongs ≤ 0.5; to C5U C24U A40G, 0.637.

Consider U3A G51A A65G A69U, for which the yeast fitness was determined as 1.03. For the variant G12A A20U U32A C49G G63A A65U, the yeast fitness worked out at 0.535.

Regarding C5G G9C C33A U35C C46U C49U G52C C61U C66U, the yeast fitness is ≤ 0.5. C27G G63C A70G: the yeast fitness is ≤ 0.5. The figure for U3C G23A C27G C33A is ≤ 0.5; for C11A A14C it is 0.683; for C24U U32G G51A it is ≤ 0.5.

Consider G6A U32A A37G, for which the yeast fitness is ≤ 0.5.

Consider C4A G23A U35C, for which the yeast fitness was ≤ 0.5. As to A14C U26A C29U C49U C62G G68C, the yeast fitness came to 0.519. The figure for G12A A21U A40C A57C A70U is ≤ 0.5. The figure for G17A A20G G25C C34U C46G G63A A65C A70G is ≤ 0.5; for A15G A57U U64G A65G it is ≤ 0.5; for U7A G25A C30U A57C A70U it is ≤ 0.5. On to U13A C29A C31G A65U, for which the yeast fitness was ≤ 0.5.

Turning to C4U C5G U7C C11G A40G A57U, the yeast fitness is ≤ 0.5. The figure for U26C G50C A57U is ≤ 0.5; for C22U C61U it is 0.72. Take U26C C30U U47A: the yeast fitness turned out to be 0.749. In the case of C5A A15G C34U A40C G56A, the yeast fitness is ≤ 0.5.

Consider U32G C33G C55U C66U, for which the yeast fitness is ≤ 0.5. The figure for C29A A36C G56A G68A is ≤ 0.5. To A40G C61G belongs 0.628; to G25A G58C C60A A65C, ≤ 0.5. With G6A C11U G23A C46A C55A, the yeast fitness is ≤ 0.5. To A14G C46U G52C belongs ≤ 0.5; to C5U A45C A70U, 0.813. To U19G C22U A37G C66U A69U belongs 0.61; to A21G U28A C33A A36C, ≤ 0.5. The figure for C4G A20C A40G G52C is 0.6; for C24G C30U C34A G51A A69C it is ≤ 0.5; for C29U U47C G67C it is ≤ 0.5. U13C A14U C46U G50C: the yeast fitness was ≤ 0.5. As to A21U C22U U32A G39A G63A, the yeast fitness is ≤ 0.5. For the variant C34A A42U G48C C61G, the yeast fitness is ≤ 0.5. In the case of G6A C29U C31U C33G U35C, the yeast fitness is ≤ 0.5. To C11U U13A G25A U28A C31A A43C C60G C61G C62U belongs 0.581. For U2A C11U G17A, the yeast fitness is ≤ 0.5. To U2C A40C G52C belongs 0.528; to C4G C11A A42U C46G, ≤ 0.5. Take C31G A45U U47A G67A: the yeast fitness was ≤ 0.5. To C4A C11A C33A belongs ≤ 0.5. Consider C4G A14C C27A C31A, for which the yeast fitness was ≤ 0.5.

Take G6C C22U C24G C27U C29A C30U C31G G58A: the yeast fitness is ≤ 0.5. To C4A G25C C34U A57C belongs ≤ 0.5. With C5A A15C C27U C30U U32G U35A A37C G50U A57U, the yeast fitness is ≤ 0.5. Turning to C4A C5G A45U, the yeast fitness is ≤ 0.5. The figure for G39U A40C C66A A69U is 0.642. Consider G12A U28A U54C A70G, for which the yeast fitness is ≤ 0.5. Consider G6A G23C C27A A42G C61A, for which the yeast fitness was ≤ 0.5. To A15G C31A G41C G56A G58C belongs ≤ 0.5; to A14C A21G G67A, ≤ 0.5. With G39C C49A G51A, the yeast fitness was ≤ 0.5. Regarding U3G C11G U13A A20G C30G, the yeast fitness was ≤ 0.5. The figure for G12A C55G is 0.639; for G39A A43C it is 0.796. For the variant A15C G48A, the yeast fitness came out at 0.946. To C4U A15U U28C A57G belongs ≤ 0.5; to U2C C27U C33U A40C C55A A65G, ≤ 0.5; to C11A C22G C29G, ≤ 0.5. The figure for G9C C61U C66A is ≤ 0.5. The figure for G12C C34A G44A C46U G68A is ≤ 0.5; for C4U A14U A37G it is ≤ 0.5. A15G C27G A42C G58A G68C: the yeast fitness was ≤ 0.5. As to U16A U35A U59C A65C, the yeast fitness is ≤ 0.5. To G6C A14C C60G G63C belongs ≤ 0.5; to C4G G18A A45C, ≤ 0.5. As for C4U G10C G23A U26C U32C A43G U53A, the yeast fitness was ≤ 0.5.

For U8A G18C G25C, the yeast fitness was ≤ 0.5. For the variant C30A U54A A57C, the yeast fitness turned out to be 0.548. Consider A45U A57U U59G U64G, for which the yeast fitness is ≤ 0.5.

Take C29A C30U G38A: the yeast fitness is ≤ 0.5. Regarding C11A G23C U32G C34A C66U, the yeast fitness is ≤ 0.5.

Consider C29G U35G G41C, for which the yeast fitness was ≤ 0.5. The figure for C31A A40U G52A C60U is ≤ 0.5. To U2C A15C C29U G50A U53C belongs ≤ 0.5. With C11G U35G C55A G56C C60G, the yeast fitness is ≤ 0.5. To C11G U35A C62A C66G belongs ≤ 0.5; to C5G A14C A36U A45U C49U U64A A70U, ≤ 0.5.

For the variant C24G C34G A43C C49U A57C, the yeast fitness is ≤ 0.5. Take U8C U13A C29A C31G: the yeast fitness was ≤ 0.5. The figure for C24U G25A C30U C46A A69U is 0.611; for C4U U47A G51C A70U it is ≤ 0.5.
